In PubChem BioAssay AID540317 (National Center for Advancing Translational Sciences (NCATS), 2011):
What follows is the remainder of the data, with few or none of the hits. Results filed as inconclusive are left out. Active and inactive are the calls of the source. The call rests on the fitted dose curve; in most records, active means well fitted inhibition curve with a large enough effect; inconclusive means small, poorly fitted or top-dose-only effect; inactive means no such curve, though single readings can be large or run the other way.

Amino acid sequences for entries named in this document (tags omitted).
UniProt P83916, whole entry, looked up: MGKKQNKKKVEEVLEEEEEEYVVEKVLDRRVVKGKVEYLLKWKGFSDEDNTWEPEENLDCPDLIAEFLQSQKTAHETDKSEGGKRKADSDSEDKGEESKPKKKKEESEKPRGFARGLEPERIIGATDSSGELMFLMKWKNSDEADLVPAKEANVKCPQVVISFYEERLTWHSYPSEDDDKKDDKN

target: Chromobox protein homolog 1 (Homo sapiens) (UniProt P83916); test: HTS for Inhibitors of HP1-beta Chromodomain Interactions with Methylated Histone Tails; conditions: AlphaScreen HP1-beta / biotin-H3K9me3 peptide binding; at 114 µM (top of the series); further: nearly all actives have a fitted effect of over 70% in size
Excerpt: As our understanding of epigenetics expands, it is becoming clear that players in this field are potential targets for drug development. This area of epigenetic therapy has established applications for the treatment of cancer and neurological diseases. We have been involved in this field for a number of years and have performed high-throughput screens to identify the first small molecule inhibitors of protein methyltransferases. These methyltransferases target multiple substrates, and thus regulate many arms of an epigenetic pathway. The methylation of different substrates often generates docking sites for effector proteins that harbor binding domains (chromo, tudor, PHD, MBT and ANK repeats). It has been proposed that the binding sites generated for different proteins by these post-translational modifcations mediate downstream effects on chromatin. Consistent with this theory, di- and tri-methylation of histone H3K9 facilitates the binding of heterochromatin protein HP1. The HP1 protein harbors a chromodomain that is responsible for the methyl-dependent interaction between HP1 and lysine 9 of histone H3. […] Low-affinity protein-protein interactions (Kd in the single- to double-digit micromolar range) such as those discussed here have been very difficult to assay by traditional techniques such as fluorescence polarization or fluorescence resonance energy transfer. […]

Compound | activity change, negative = inhibition
CCCCCCCCc1ccc(O)cc1 | inactive: 58.8%
COc1cc2c(c(OC)c1OC)-c1ccc(SC)c(=O)cc1C(NC(C)=O)CC2 (configuration not stated) | inactive: 46.1%
